Source: patent US20110159588A1
These are yes or no findings as the source states them, for the method shown. Binding seen in cells or lysates may run through a third protein. Some binding calls cover weakened binding; strength is not graded here.

Columns and labels:
[1] = biological target: gD-tagged full-length TMEFF2 expressed on the surface of 293 cells (human) (UniProt Q9UIK5); experiment: co-immunoprecipitation with anti-gD mAb from transfected 293 cells, anti-PDGF-A blot
[2] = biological target: T1, full-length TMEFF2 (TMEFF2-FL) expressed on the surface of 293 cells (human) (UniProt Q9UIK5); experiment: co-immunoprecipitation with anti-TMEFF2 pAb from transfected 293 cells, anti-PDGF-A blot
T1 sequence: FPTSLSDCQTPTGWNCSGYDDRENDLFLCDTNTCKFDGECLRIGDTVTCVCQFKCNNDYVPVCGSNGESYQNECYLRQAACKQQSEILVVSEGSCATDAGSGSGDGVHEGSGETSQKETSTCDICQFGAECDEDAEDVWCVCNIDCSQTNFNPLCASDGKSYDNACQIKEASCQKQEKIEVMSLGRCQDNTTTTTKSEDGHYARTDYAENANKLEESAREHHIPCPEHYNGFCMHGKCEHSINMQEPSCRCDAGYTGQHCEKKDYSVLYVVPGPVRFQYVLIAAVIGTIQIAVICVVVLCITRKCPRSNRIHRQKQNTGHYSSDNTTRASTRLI

- binding [1]: binds
- binding [2]: binds
Substance: recombinant human PDGF-AA (from UniProt P04085 87-211) (ligand)
